Results are given in words; binding and its absence hold for the method and conditions named. Binding seen in cells or lysates may run through a third protein. Some binding calls cover weakened binding; strength is not graded here.
Biological target: E3 ubiquitin ligase synoviolin (SYVN1) (human (in NPA87 cells)) (UniProt Q86TM6)
Assay: co-IP; NPA87 cells lysed in IP lysis buffer (Beyotime) at 4 °C for 30 min; Protein A/G agarose beads; SDS-PAGE and immunoblotting; precipitating antibody not stated

Chains of the proteins cited; added tags and fusions are not shown.
UniProt Q86TM6: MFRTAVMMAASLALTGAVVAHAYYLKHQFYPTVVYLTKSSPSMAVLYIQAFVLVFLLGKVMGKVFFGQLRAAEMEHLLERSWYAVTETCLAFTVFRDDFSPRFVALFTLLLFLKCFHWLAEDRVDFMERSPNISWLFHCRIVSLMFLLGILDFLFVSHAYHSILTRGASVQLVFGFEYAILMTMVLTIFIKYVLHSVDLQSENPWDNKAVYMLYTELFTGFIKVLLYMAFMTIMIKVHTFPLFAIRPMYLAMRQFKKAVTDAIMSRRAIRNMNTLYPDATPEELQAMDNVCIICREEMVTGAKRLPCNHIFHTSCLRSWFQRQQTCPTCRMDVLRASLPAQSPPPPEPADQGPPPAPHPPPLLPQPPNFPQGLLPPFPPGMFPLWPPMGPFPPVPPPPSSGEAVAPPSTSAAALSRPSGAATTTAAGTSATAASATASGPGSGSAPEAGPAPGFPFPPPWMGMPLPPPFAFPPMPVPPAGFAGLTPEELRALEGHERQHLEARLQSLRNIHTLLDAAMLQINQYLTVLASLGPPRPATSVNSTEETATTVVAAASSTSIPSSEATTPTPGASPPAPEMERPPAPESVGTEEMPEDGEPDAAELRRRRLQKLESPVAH
UniProt P09429: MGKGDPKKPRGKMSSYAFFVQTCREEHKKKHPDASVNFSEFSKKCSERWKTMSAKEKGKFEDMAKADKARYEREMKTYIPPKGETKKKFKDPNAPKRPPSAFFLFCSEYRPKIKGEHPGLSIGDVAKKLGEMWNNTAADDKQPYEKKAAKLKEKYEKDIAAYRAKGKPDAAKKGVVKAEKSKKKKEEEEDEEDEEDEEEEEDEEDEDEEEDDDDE

binding: binds
Substance: HMGB1 (from UniProt P09429 1-215)

Source: PMC11057142
